Results published in PubChem BioAssay (EPA / NIEHS).
Inconclusive results, whose numbers are uncertain, are shown with a selection of clear calls. For some of these results: Where the call is inconclusive, the potency comes from a doubtful curve fit. The source holds several records for some structures; these can differ, active in one and inactive in another. Active and inactive are the calls of the source. The calls were made as follows: active = hit-call score of the fitted dose curve at least 0.9, where 1 is the maximum; inconclusive = response in the unintended direction; inactive = score below 0.9.

Protein sequences, listed by entry. Tags and fused reporters are not part of them. Lines headed by an entry give the natural chain unless they say otherwise; changes in a name come on top.
UniProt P10275: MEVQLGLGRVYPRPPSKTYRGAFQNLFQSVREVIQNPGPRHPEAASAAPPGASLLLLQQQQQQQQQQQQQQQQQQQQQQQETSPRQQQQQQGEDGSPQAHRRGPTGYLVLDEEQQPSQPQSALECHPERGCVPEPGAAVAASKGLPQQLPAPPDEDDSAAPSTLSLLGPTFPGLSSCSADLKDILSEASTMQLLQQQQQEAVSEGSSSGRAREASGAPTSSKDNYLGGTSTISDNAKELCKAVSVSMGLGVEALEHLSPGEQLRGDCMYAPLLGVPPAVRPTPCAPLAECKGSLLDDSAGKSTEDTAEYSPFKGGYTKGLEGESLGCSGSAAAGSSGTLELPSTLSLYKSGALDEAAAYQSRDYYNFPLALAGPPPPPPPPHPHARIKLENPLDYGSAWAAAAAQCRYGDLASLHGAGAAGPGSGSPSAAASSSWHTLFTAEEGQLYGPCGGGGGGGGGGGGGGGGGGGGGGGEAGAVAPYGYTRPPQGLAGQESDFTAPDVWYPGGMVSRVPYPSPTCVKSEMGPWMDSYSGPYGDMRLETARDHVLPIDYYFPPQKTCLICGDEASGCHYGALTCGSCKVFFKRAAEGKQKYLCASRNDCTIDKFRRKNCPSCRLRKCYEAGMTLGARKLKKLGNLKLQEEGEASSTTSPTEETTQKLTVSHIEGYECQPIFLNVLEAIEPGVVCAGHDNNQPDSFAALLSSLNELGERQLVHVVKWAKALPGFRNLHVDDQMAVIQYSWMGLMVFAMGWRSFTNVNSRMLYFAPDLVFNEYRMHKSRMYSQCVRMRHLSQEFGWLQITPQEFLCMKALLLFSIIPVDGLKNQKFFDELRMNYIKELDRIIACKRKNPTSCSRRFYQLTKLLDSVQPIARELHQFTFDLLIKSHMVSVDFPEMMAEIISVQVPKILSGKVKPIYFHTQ
UniProt P03372, whole entry, looked up: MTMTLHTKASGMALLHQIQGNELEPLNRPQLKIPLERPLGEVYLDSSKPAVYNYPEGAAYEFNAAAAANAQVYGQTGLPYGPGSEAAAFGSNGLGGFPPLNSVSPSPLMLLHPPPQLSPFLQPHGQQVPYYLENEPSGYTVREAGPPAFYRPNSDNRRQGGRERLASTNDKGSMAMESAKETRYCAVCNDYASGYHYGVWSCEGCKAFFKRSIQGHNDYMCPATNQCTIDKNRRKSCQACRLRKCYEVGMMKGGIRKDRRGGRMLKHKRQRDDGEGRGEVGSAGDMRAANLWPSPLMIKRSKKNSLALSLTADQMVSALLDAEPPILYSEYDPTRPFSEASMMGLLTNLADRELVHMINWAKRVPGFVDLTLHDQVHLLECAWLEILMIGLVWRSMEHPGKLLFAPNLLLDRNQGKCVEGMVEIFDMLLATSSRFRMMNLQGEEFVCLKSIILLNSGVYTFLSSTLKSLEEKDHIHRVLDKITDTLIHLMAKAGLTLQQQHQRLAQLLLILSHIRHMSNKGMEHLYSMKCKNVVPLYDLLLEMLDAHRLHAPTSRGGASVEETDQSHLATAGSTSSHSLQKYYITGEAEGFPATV

What was measured:
[1] = molecular target: Ratio of Nucleoli Translocation and Cytoplasm, AR (gene 367) (UniProt P10275); assay: UPITT_HCI_U2OS_AR_TIF2_Nucleoli_Cytoplasm_Ratio_Antagonist: University of Pittsburgh U2OS Androgen Receptor-Transcriptional Intermediary Factor 2 (AR-TIF2) Antagonism High Content Imaging Assay for Ratio of Nucleoli Translocation and Cytoplasm (AID 2283999);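 also: antagonists lower the DHT-driven ratio of nucleolar to cytoplasmic red signal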
How it was run: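 Read-out is the ratio of nucleolar to cytoplasmic AR-RFP fluorescence, imaged by high-content microscopy in U2OS cells coexpressing TIF2-GFP. Single-point 20 uM screen, triplicate confirmation, then 0.195–50 uM dose response; activity referenced to DHT baseline.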

[2] = molecular target: Ratio of Nucleoli Translocation and Cytoplasm, AR (gene 367) (UniProt P10275); assay: UPITT_HCI_U2OS_AR_TIF2_Nucleoli_Cytoplasm_Ratio_Agonist: University of Pittsburgh U2OS Androgen Receptor-Transcriptional Intermediary Factor 2 (AR-TIF2) Agonism High Content Imaging Assay for Ratio of Nucleoli Translocation and Cytoplasm (AID 2284000);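 also: hits raise the red nucleolar to cytoplasm ratio above vehicle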
How it was run: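 Compounds tested at 20 uM final in primary screen (0.2% DMSO) and 0.195-50 uM final in dose-response (0.5% DMSO). Imaging of human U2OS cells bearing RFP-AR and GFP-TIF2; endpoint is nucleoli/cytoplasm red signal ratio, positive direction relative to DMSO.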

[3] = CCTE_Simmons_MITO_viability: CellTiter-Glo Viability Assessment for CCTE's HepG2 Seahorse XF Respirometric Screening Assay [post-hoc], Simmons Lab (AID 2284007);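 as to AC50: cells exposed to chemical for 90 min before the ATP read; actives lower ATP signal relative to DMSO baseline meaning reduced viability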
How it was run: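 Luciferase-coupled ATP luminescence, single endpoint. HepG2, post-respirometry. Compound 125 nM–100 uM final, 7 conc., 90 min. n=3 biological, technical singles. DMSO vehicle/baseline; dichlone 10 nM–100 uM, 8 conc., as positive control.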

[4] = CCTE_Deisenroth_AIME_384WELL_CTox_Inactive: Cytotoxicity Assessment (CTOX) in CCTE's 384-well Estrogen Receptor Transactivation Assay without AIME metabolic competence (metabolism negative), Deisenroth Lab (AID 2284039);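 also: cell viability via live-cell protease substrate cleaved to fluorescent probe; cells exposed 24 h to medium preincubated 2 h with alginate-water beads without S9; loss of fluorescence signal means loss of viability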
How it was run: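 Fluorescence from a live-cell protease substrate, read after 24 h in VM7Luc4E2 cells, indicated viability. Test medium came from a 2 h AIME step without hepatic S9 (alginate-water microspheres); concentrations spanned 0.002 - 200 uM, single technical replicate per run.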

[5] = CCTE_Harrill_HTTr_CellCount_MCF7: CCTE's Cell Proliferation Assessment for the High-Throughput Transcriptomics (HTTr) Platform, Harrill Lab (AID 2284012);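 also: count of Hoechst-stained nuclei per well by high-content imaging in MCF-7 cells; cells exposed to compound for six hours; intended direction is loss of nuclei count meaning fewer cells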
How it was run: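 Readout: Hoechst nuclear count by high-content imaging. MCF-7, 8-point dilution series, 6 h exposure. Bidirectional fit vs DMSO baseline.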

[6] = molecular target: Estrogen receptor (Homo sapiens) (UniProt P03372); assay: CCTE_Deisenroth_AIME_384WELL_LUC_Inactive: CCTE's 384-well Estrogen Receptor Transactivation Assay without AIME metabolic competence (ERTA luciferase; metabolism negative), Deisenroth Lab (AID 2284038);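 also: VM7Luc4E2 breast cells given medium preincubated 2 h with S9-free microspheres; hits raise estrogen receptor luciferase signal so potencies reflect agonists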
How it was run: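 Metabolism-negative mode: AIME lids stamped in alginate-water, no hepatic S9. 2 h chemical incubation → medium onto VM7Luc4E2 ERTA, 24 h. Readout luciferase luminescence; gain-of-signal fit vs 17beta-estradiol. Conc. 0.002 - 200 uM.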

[7] = molecular target: Nucleoli Translocation, AR (gene 367) (UniProt P10275); assay: UPITT_HCI_U2OS_AR_TIF2_Nucleoli_Agonist: University of Pittsburgh U2OS Androgen Receptor-Transcriptional Intermediary Factor 2 (AR-TIF2) Agonism High Content Imaging Assay for Nucleoli Translocation (AID 2283998)
How it was run: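 Readout is red (AR-RFP) fluorescence localized to nucleoli, measured by high-content imaging and analysed for increase relative to DMSO. Compound series spanned 0.195 to 50 uM final in 0.5% DMSO.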

[8] = CCTE_Shafer_MEA_dev_active_electrodes_number: CCTE's Neural Network Formation Assay for Number of Active Electrodes, Shafer Lab (AID 2284040);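 also: potency for loss of active electrodes versus DMSO so lower counts are hits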
How it was run: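 Developing rat cortical networks on MEAs, exposed DIV 0–12. Value is the AUC of active-electrode counts (≥5 spikes/min) from days 5, 7, 9, 12, relative to DMSO.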

[9] = CCTE_Shafer_MEA_dev_AB: CCTE's Alamar Blue Assay for Cytotoxicity in the Neural Network Formation Assay, Shafer Lab (AID 2284083);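 also: resazurin reduction fluorescence as viability of cultured neurons; twelve days of exposure from plating with re-dosing on DIV 5 and 9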
How it was run: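 Cytotoxicity companion to the developmental MEA: primary rat cortical neurons, 12-day exposure starting day 0, compound refreshed DIV 5 and 9; resazurin fluorescence, fitted against DMSO vehicle.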

[10] = CCTE_Shafer_MEA_acute_AB: CCTE's Alamar Blue Assay for Cytotoxicity in the Neural Acute Assay, Shafer Lab (AID 2284069);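 also: active compounds lower the viability signal compared with DMSO wells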
How it was run: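 Cytotoxicity endpoint for acute MEA exposures of primary rat cortical neurons on day 13 or 15. Resazurin reduction is read fluorescently at 544/590 nm, with DMSO as the negative-control baseline.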

[11] = CCTE_Deisenroth_AIME_384WELL_CTox_Active: Cytotoxicity Assessment (CTOX) in CCTE's 384-well Estrogen Receptor Transactivation Assay with AIME metabolic competence (metabolism positive), Deisenroth Lab (AID 2284037);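 also: chemicals first conditioned 2 h by alginate-bound induced rat liver S9 before cells; activity means signal loss indicating cell death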
How it was run: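 Cytotoxicity in VM7Luc4E2 breast cells, 24 hour, measured as protease-substrate fluorescence loss, after 2-hour metabolic conditioning with induced rat hepatic S9 in alginate microspheres. Concentrations 0.002 - 200 uM, 10 points, bidirectional fitting.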

[12] = CCTE_Shafer_MEA_dev_bursting_electrodes_number: CCTE's Neural Network Formation Assay for Number of Bursting Electrodes, Shafer Lab (AID 2284043)
How it was run: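 Number of electrodes reaching ≥1 burst every 2 min was recorded at DIV 5, 7, 9 and 12 and collapsed as trapezoidal area under the curve. Cultures were rat cortical neurons on MEA plates, dosed continuously from plating with medium and treatment refreshed on DIV 5 and 9.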

[13] = CCTE_Shafer_MEA_acute_LDH: CCTE's Lactate Dehydrogenase Assay for Cytotoxicity in the Neural Acute Assay, Shafer Lab (AID 2284086);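 also: active means LDH release rises above DMSO vehicle level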
How it was run: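 LDH absorbance at 490 nm in medium taken right after 40-min compound exposure; rat primary cortical neuron networks on MEA plates, days post-plating 13 or 15. Increase over DMSO baseline scored as cytotoxicity.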

[14] = molecular target: Estrogen receptor (Homo sapiens) (UniProt P03372); assay: CCTE_Deisenroth_AIME_384WELL_LUC_Active: CCTE's 384-well Estrogen Receptor Transactivation Assay with AIME metabolic competence (ERTA luciferase; metabolism positive), Deisenroth Lab (AID 2284030)
How it was run: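 AIME metabolism-positive mode: chemicals 0.002 - 200 uM, 2 h with alginate-bound PB/BNF-induced rat S9 → medium to VM7Luc4E2 ERTA, 24 h → luciferase. Positive fit vs 17beta-estradiol; n=4 typical.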

[15] = CCTE_Shafer_MEA_dev_LDH: CCTE's Lactate Dehydrogenase Assay for Cytotoxicity in the Neural Network Formation Assay, Shafer Lab (AID 2284068);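 also: exposure for twelve days from plating with re-dosing on DIV 5 and 9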
How it was run: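 Developing rat cortical networks on MEA plates are exposed to compound for 12 days from plating. LDH activity is measured spectrophotometrically, with DMSO as baseline.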

For CCC(=O)O[C@H]1CC[C@H]2[C@@H]3CCC4=CC(=O)CC[C@]4(C)[C@H]3CC[C@]12C, the AC50 [1] was inconclusive: 0.000901 µM, the AC50 [2] was active: 0.000508 µM and the AC50 [3] was inconclusive: 50 µM. For the same compound, the outcome [4] was “inactive”.
In the case of ClC(Cl)=C(c1ccc(Cl)cc1)c1ccccc1Cl, the outcome [1] is reported as “inactive”, the outcome [2] is reported as “inactive” and the AC50 [5] is reported as inconclusive: 0.0331 µM.
For CCCCN(CC)C(=O)SCCC, the outcome [1] was “inactive” and the outcome [2] was “inactive”.
For O=C(N[C@H]1CN2CCC1CC2)c1cc2ccoc2cn1, the AC50 [1] was inconclusive: 50 µM and the outcome [6] was “inactive”.
With CCC(C)(C)C(=O)OC1=C(c2ccc(Cl)cc2Cl)C(=O)OC12CCCCC2 the outcome [7] was “inactive”, the AC50 [8] was inconclusive: 15 µM and the AC50 [9] was inconclusive: 15 µM. For the same compound, the outcome [9] was “inactive”.
With Nc1c(Cl)c(F)nc(OCC(=O)O)c1Cl the outcome [1] was “inactive” and the AC50 [3] was inconclusive: 50 µM.
In the case of O=C(O)CCCOc1ccc(Cl)cc1Cl, the AC50 [1] is reported as inconclusive: 51 µM, the outcome [2] is reported as “inactive” and the AC50 [3] is reported as inconclusive: 51 µM. For the same compound, the AC50 [5] was inconclusive: 50 µM and the outcome [10] was “inactive”.
For CCN(CC)c1ccccc1, the AC50 [1] was inconclusive: 50 µM.
With CCOP(=S)(OCC)Oc1nc(Cl)c(Cl)cc1Cl the outcome [1] was “inactive”.
In the case of C[C@H]1[C@H](c2ccc(Cl)cc2)SC(=O)N1C(=O)NC1CCCCC1, the outcome [1] is reported as “inactive”, the AC50 [5] is reported as inconclusive: 50 µM and the outcome [4] is reported as “inactive”. For the same compound, the AC50 [10] was inconclusive: 20 µM.
For COc1ccc(C(=CC(=O)N2CCOCC2)c2ccc(Cl)cc2)cc1OC, the AC50 [1] was active: 2.52 µM and the outcome [11] was “inactive”.
With O=C(N[C@H]1CN2CCC1CC2)c1ccc2c(c1)OCCO2 the AC50 [1] was inconclusive: 50 µM and the AC50 [5] was inconclusive: 50 µM.
For Cc1ccc(-c2c(Cl)nc(C#N)n2S(=O)(=O)N(C)C)cc1, the AC50 [2] was inconclusive: 50 µM, the AC50 [5] was inconclusive: 0.106 µM and the AC50 [9] was active: 50 µM.
For O=C(NC(=O)c1c(F)cccc1F)Nc1cc(Cl)c(OC(F)(F)C(F)C(F)(F)F)cc1Cl (stereo unspecified), the outcome [1] was “inactive”.
With CCCCC(CC)COP(=O)(Oc1ccccc1)Oc1ccccc1 (stereo unspecified) the outcome [2] was “inactive”, the outcome [11] was “inactive” and the outcome [12] was “inactive”. For the same compound, the outcome [9] was “inactive”.
For CN(C)C(=S)SSC(=S)N(C)C, the AC50 [1] was active: 9.92 µM, the AC50 [2] was inconclusive: 11.9 µM and the AC50 [9] was active: 0.012 µM.
With CCNc1nc(Cl)nc(NC(C)(C)C)n1 the AC50 [1] was inconclusive: 11.7 µM and the AC50 [5] was inconclusive: 50 µM.
With N#Cc1nn(-c2c(Cl)cc(C(F)(F)F)cc2Cl)c(N)c1S(=O)C(F)(F)F (stereo unspecified) the outcome [1] was “inactive”, the outcome [3] was “inactive” and the outcome [9] was “inactive”.
For CC(C)N1C(=O)N(c2ccccc2)CSC1=NC(C)(C)C, the outcome [2] was “inactive” and the outcome [5] was “inactive”.
In the case of Cl/C=C\C[N+]12CN3CN(CN(C3)C1)C2, the AC50 [1] is reported as active: 50 µM.
With O=[N+]([O-])/N=C1\NCCN1Cc1ccc(Cl)nc1 the AC50 [1] was inconclusive: 50 µM, the outcome [2] was “inactive” and the AC50 [10] was inconclusive: 20 µM. The AC50 [9] was inconclusive: 15 µM and the AC50 [13] was inconclusive: 20 µM.
For CC(=Cc1ccccc1)[N+](=O)[O-], the AC50 [1] was active: 0.845 µM, the AC50 [14] was inconclusive: 100 µM and the AC50 [11] was inconclusive: 0.000193 µM. For the same compound, the AC50 [6] was inconclusive: 121 µM and the AC50 [4] was inconclusive: 0.0002 µM.
In the case of CC(C)(O)c1cnn2c(-c3ccc(F)c(-c4c(F)cccc4C#N)c3)cnc2n1, the AC50 [1] is reported as inconclusive: 50 µM, the AC50 [15] is reported as inconclusive: 0.0817 µM and the outcome [9] is reported as “inactive”. For the same compound, the outcome [13] was “inactive”.
With CO/N=C(/C(=O)OC)c1ccccc1COc1ccccc1C the outcome [7] was “inactive”, the AC50 [5] was inconclusive: 50 µM and the AC50 [9] was active: 1.15 µM.
In the case of C=CC(=O)OCCCCCC(C)C, the AC50 [2] is reported as inconclusive: 50 µM.
With CNC(=O)ON=C(SC)C(=O)N(C)C the AC50 [2] was inconclusive: 50 µM.
In the case of Cc1[nH]c(=O)n(C(C)(C)C)c(=O)c1Cl, the AC50 [1] is reported as inconclusive: 50 µM.
In the case of CC(=O)[O][Hg][c]1ccccc1, the AC50 [1] is reported as active: 0.424 µM, the AC50 [14] is reported as inconclusive: 3.41 µM and the AC50 [11] is reported as active: 66.1 µM. For the same compound, the AC50 [6] was inconclusive: 5.91 µM, the AC50 [4] was active: 46.3 µM and the AC50 [15] was active: 0.0183 µM. The AC50 [10] was active: 20 µM.
With CCOC(=O)COc1cc(-c2nn(C)c(OC(F)F)c2Cl)c(F)cc1Cl the AC50 [1] was inconclusive: 6.17 µM and the AC50 [5] was inconclusive: 50 µM.
In the case of CC(C)N(C(=O)CCl)c1ccccc1, the AC50 [1] is reported as active: 11.4 µM.
With COP(=O)(OC)SCn1c(=O)oc2cc(Cl)cnc21 the outcome [7] was “inactive”, the AC50 [6] was inconclusive: 57.1 µM and the AC50 [4] was active: 100 µM.
With NS(=O)(=O)C(F)(F)C(F)(F)C(F)(F)C(F)(F)C(F)(F)C(F)(F)C(F)(F)C(F)(F)F the AC50 [2] was active: 32 µM and the outcome [9] was “inactive”.
